From article doi:10.1101/694653 (bioRxiv, 2019) come the findings set out here.

Sequences of proteins named here, by UniProt entry; tags and fusion partners are left off. Residues count along the entry.
UniProt Q86YW7, residues 25-130: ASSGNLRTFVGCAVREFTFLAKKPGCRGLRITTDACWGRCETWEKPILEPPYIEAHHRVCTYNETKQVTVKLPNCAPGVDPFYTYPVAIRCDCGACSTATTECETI

This test deals with H. sapiens GPB5-His (H. sapiens) (UniProt Q86YW7). Kind of test: cross-linking.

Results are given in words; binding and its absence hold for the method and conditions named. Binding seen in cells or lysates may run through a third protein. Some entries that bind do so weakly or less than the wild type.

B1: H. sapiens GPA2-FLAG (natural protein, UniProt Q96T91 24-129, looked up)
chain: QEAVIPGCHLHPFNVTVRSDRQGTCQGSHVAQACVGHCESSAFPSRYSVLVASGYRHNITSVSQCCTISGLKKVKVQLQCVGSRREELEIFTARACQCDMCRLSRY
B1: the binding result is “binds”.
